# Patent US20090075951A1, “Methods and Reagents for the Treatment of Inflammatory Disorders” (CombinatoRx, Inc., priority 2003, published 2009)
# “And” between values parts separate entries of the source, which are not always exact repeats. Identical values can stand only once. The name of at least one read-out is uncertain.
# Legend:
# [1] = tested on: TNFα secretion from LPS stimulated white blood cells from human buffy coat; test: TNFα secretion assay, LPS stimulation
# [2] = tested on: TNFα secretion from PMA/ionomycin stimulated white blood cells from human buffy coat; test: TNFα secretion assay, PMA/ionomycin stimulation; conditions: Prednisolone 0 nM; Amoxapine nM: 0, 12, 50, 199, 797, 3187
smiles,measurement,setting,value
"CNCCCN1c2ccccc2CCc2ccccc21 [Desipramine, desipramine]",percent inhibition of TNFα secretion,"[1]; Prednisolone 0.5 μM, Desipramine μM r5-r13: 0,0.5,1,2,4,8,16,32,64",57.2% and 54.2% and 60.9% and 82.4% and 61.1% and 63.8% and 57.8% and 58.6%
same,percent inhibition of TNFα secretion,"[1]; Prednisolone 1 μM, Desipramine μM r5-r13: 0,0.5,1,2,4,8,16,32,64",57.5% and 42.7% and 80.5% and 67.0% and 62.5% and 66.6%
"Clc1ccc2c(c1)C(N1CCNCC1)=Nc1ccccc1O2 [Amoxapine, amoxapine]",percent inhibition of TNFα secretion,"[1]; Prednisolone 0.5 μM, Amoxapine μM r5-r13: 0,0.25,0.5,1,2,4,8,16,32",62.6% and 73.8% and 78.9% and 59.5% and 59.2% and 59.6%
same,percent inhibition of TNFα secretion,"[1]; Prednisolone 1 μM, Amoxapine μM r5-r13: 0,0.25,0.5,1,2,4,8,16,32",69.1% and 72.4% and 75.8% and 78.1% and 65.2% and 64.8% and 67.0% and 69.4%
same,percent inhibition of TNFα secretion,[2],10.8%
"CN1CCN(C2=Nc3ccccc3Oc3ccc(Cl)cc32)CC1 [Loxapine, loxapine]",percent inhibition of TNFα secretion,"[1]; Prednisolone 0.5 μM, Loxapine μM r5-r13: 0,0.35,0.7,1.4,2.8,5.6,11,22,45",67.9% and 65.4% and 63.2% and 66.0% and 69.5% and 68.2% and 67.1% and 66.9%
same,percent inhibition of TNFα secretion,"[1]; Prednisolone 1 μM, Loxapine μM r5-r13: 0,0.35,0.7,1.4,2.8,5.6,11,22,45",69.5% and 67.9% and 63.9% and 68.0% and 67.1% and 70.6% and 72.0% and 69.0%
"CN(C)CCCN1c2ccccc2CCc2ccc(Cl)cc21 [Clomipramine, clomipramine]",percent inhibition of TNFα secretion,"[1]; Prednisolone 0.5 μM, Clomipramine μM r5-r13: 0,0.45,0.89,1.8,3.6,7.1,14,28,57",63.5% and 62.7% and 68.6% and 93.8% and 63.3% and 68.0% and 66.5% and 65.8%
same,percent inhibition of TNFα secretion,"[1]; Prednisolone 1 μM, Clomipramine μM r5-r13: 0,0.45,0.89,1.8,3.6,7.1,14,28,57",68.5% and 73.0% and 94.1% and 65.6% and 65.2% and 69.7%
